# From PubChem BioAssay AID1259354 (Paczesny and Yang Labs, IUPUI and University of Michigan, 2018)
# By UniProt entry, the sequences of proteins in these tests, tags left out. Where a name states a change or a piece, a line headed by the entry shows the natural chain unless it says otherwise.
# UniProt Q01638: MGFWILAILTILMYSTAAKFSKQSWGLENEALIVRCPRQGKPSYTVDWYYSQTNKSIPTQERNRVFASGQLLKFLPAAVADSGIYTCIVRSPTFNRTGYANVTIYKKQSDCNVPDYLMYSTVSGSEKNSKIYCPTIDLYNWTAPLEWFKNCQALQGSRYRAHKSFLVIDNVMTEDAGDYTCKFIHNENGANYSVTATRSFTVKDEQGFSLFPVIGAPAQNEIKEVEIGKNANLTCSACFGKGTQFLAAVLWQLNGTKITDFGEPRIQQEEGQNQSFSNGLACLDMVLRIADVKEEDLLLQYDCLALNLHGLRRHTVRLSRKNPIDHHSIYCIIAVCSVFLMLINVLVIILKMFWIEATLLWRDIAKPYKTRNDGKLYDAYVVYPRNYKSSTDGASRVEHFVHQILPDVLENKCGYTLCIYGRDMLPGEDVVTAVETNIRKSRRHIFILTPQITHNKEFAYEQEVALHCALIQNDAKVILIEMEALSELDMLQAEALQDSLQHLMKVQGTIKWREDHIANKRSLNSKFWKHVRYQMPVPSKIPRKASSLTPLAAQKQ
# The whole screen tested about 78,000 compounds, of which about 1,800 (2.3%) were called active. Inconclusive results, whose numbers are uncertain, are shown with a selection of clear calls. No stated cut-off is given here; in the data, active means inhibition above about 30%; inconclusive means mostly about 10% to 28%; inactive means weaker than that.
# Target: Interleukin-1 receptor-like 1 (Homo sapiens) (UniProt Q01638)
# Test: blocks human ST2 binding to IL-33, primary screen, biochemical, AlphaLISA (AID 1259354)
# Conditions: AlphaLISA ST2-Fc/biotin-IL-33 interaction, 1 h; at 17 µM, hits give high values
row,Compound,inhibition
1,N#CC1=C(N)OC2=C(C(=O)CC(c3ccccc3)C2)C1c1cc(Br)cs1 (stereo not given),inactive
2,O=C(c1cc(-c2ccc(Br)cc2)nc2ccccc12)N1CCOCC1,inactive
3,Cc1nccnc1N1CCC(N2CCCC(C(=O)NCc3ccccn3)C2)CC1 (stereo not given),inconclusive: 11%
4,N#CC1=C(N)OC2=C(C(=O)CC(c3ccccc3)C2)C1c1c[nH]c2ccccc12 (stereo not given),inconclusive: 19%
5,CCCNS(=O)(=O)c1cc(Br)cc2c1N(C(=O)C1CC1)CC2,inconclusive: 10%
6,Cn1c(SCC(=O)Nc2nc3ccccc3s2)nc2c([nH]c3ccccc32)c1=O,inconclusive: 10%
7,CC(=O)n1cc(C(C[N+](=O)[O-])SCCN)c2ccccc21 (stereo not given),active: 30%
8,O=C(c1cc(-c2ccc(Cl)c(Cl)c2)on1)N1CCN(Cc2ccccc2)CC1,inconclusive: 12%
9,CN1CCCN(Cc2cccs2)CC1,inactive
10,CC12C(=O)N(c3cccc(O)c3)C(=O)C1C1C=CC2C1 (stereo not given),inactive
11,COc1ccc(C2C(=C(O)c3ccc([N+](=O)[O-])cc3)C(=O)C(=O)N2CCO)c(OC)c1 (stereo not given),inactive
12,Cc1ccccc1SC1CCN(C(=O)C(=O)c2cccnc2)CC1,inconclusive: 12%
13,Cc1cccn2c(CNC(C)Cn3cncn3)cnc12 (stereo not given),inconclusive: 19%
14,COc1ccccc1N1CCN(C(=O)c2ccccc2Cl)CC1,inconclusive: 15%
15,c1ccc(N2CCC(N3CCC4(CCNCC4)CC3)CC2)cc1,inconclusive: 17%
16,NNc1nc2ccccc2s1,active: 68%
17,CCCc1cnc(C)nc1-c1cc(N)nc2[nH]ccc12,inconclusive: 22%
18,COc1ccccc1Oc1nc2c(c(=O)n(C)c(=O)n2C)n1Cc1ccccc1,inactive
19,CCOc1ccccc1N1CCN(Cc2ccc([N+](=O)[O-])s2)CC1,inconclusive: 21%
20,COc1cc(C2=N/C(=C\c3cccc([N+](=O)[O-])c3)C(=O)O2)cc(OC)c1OC,inconclusive: 15%

row,Compound,inhibition
1,CCOC(=O)c1c(CC(C)C)csc1NC(=O)c1ccc(C)cc1,inactive
2,O=c1c2c(nc(SCc3ccc(F)cc3)n1-c1ccccc1)CCS2,inconclusive: 19%
3,CCOC(=O)CSc1nc2c(sc3ccccc32)c(=O)n1-c1ccccc1,inactive
4,CCn1cncc1CNC(=O)c1cnn2cc(C)cnc12,inconclusive: 10%
5,CC(=O)Nc1ccc(CN2CCC[C@H]2c2nc(-c3ccc(N(C)C)nc3)no2)cc1,inconclusive: 13%
6,CCN(CC)CCC(=O)N1c2ccccc2CCc2ccc(NC(=O)OC)cc21,inconclusive: 17%
7,Cc1cc(C)n(CC(C)NCc2n[nH]c3c2CCC3)n1 (stereo not given),inconclusive: 25%
8,CCOC(=O)C1=C(C)NC2=C(C(=O)C(C(=O)OC)C(C)C2)C1c1coc2ccc(C)cc2c1=O (stereo not given),inactive
9,CC1=C(C(=O)N2CCOCC2)C(c2ccc(C)cc2)n2c(nc3ccccc32)N1 (stereo not given),inactive
10,COc1ccccc1C(=O)N1CCN(S(=O)(=O)c2cc3c4c(c2)CCN4C(=O)CC3)CC1,inconclusive: 18%
11,N#Cc1c(N)sc2c1CCCC2,active: 31%
12,Cc1nnc(SCC(=O)NCCc2csc(-c3cccnc3)n2)s1,inconclusive: 10%
13,COc1ccc(N(C(C)C(=O)Nc2ccccc2C(=O)NC2CCCCC2)S(C)(=O)=O)cc1 (stereo not given),inactive
14,Cc1ccc(NC2CCCN(C(=O)c3scc4c3OCCO4)C2)cc1C (stereo not given),inactive
15,COc1cccc([C@@H](C)Nc2nc3nonc3nc2N(C)C)c1,inconclusive: 20%
16,CCOC(=O)C1CCN(C(=O)CSc2c3c(nc4ccccc24)CCC3)CC1,inconclusive: 14%
17,Cc1oc(-c2cccc(Cl)c2)nc1Cn1ccnc1C,inconclusive: 12%
18,Cc1ccccc1NCN1C(=O)c2ccccc2C1=O,inconclusive: 11%
19,Cc1ccc(-c2noc(CCC(=O)NC3CCCC(C)C3C)n2)cc1 (stereo not given),inactive
20,COc1ccc(C)cc1NC(=O)C(NS(=O)(=O)c1cccs1)c1ccccc1 (stereo not given),inconclusive: 13%

row,Compound,inhibition
1,COc1ccc(CC2CN(Cc3cnc(-c4ccccn4)nc3)CCO2)cc1 (stereo not given),inconclusive: 11%
2,O=C(NCc1ccccn1)c1ccc2c(c1)N(Cc1ccc(F)cc1)C(=O)CS2,inconclusive: 11%
3,COc1nc(C)c(C(=O)N2CCN3CCN(C)C(=O)C3C2)s1 (stereo not given),inconclusive: 11%
4,O=C(Nc1ccc([N+](=O)[O-])c(NC(=O)C2CCCO2)c1)C1CCCO1 (stereo not given),inconclusive: 10%
5,Cc1ccc(Cn2c(CNS(=O)(=O)c3ccc(C)cc3)nc3cccnc32)cc1,inconclusive: 10%
6,O=C(C1CC1)N1CCc2cc(S(=O)(=O)N3CCCCC3c3cccnc3)ccc21 (stereo not given),inconclusive: 16%
7,OCCc1ccc(O[C@@H]2O[C@H](CO)[C@@H](O)[C@H](O)[C@H]2O)cc1,inconclusive: 11%
8,CC(C)N1CC[C@H](c2nnc(-c3cncn3C)o2)C1,inactive
9,Cn1ccnc1SCC(=O)N1c2ccccc2C(C)(c2ccc(Cl)cc2)CC1(C)C (stereo not given),inconclusive: 24%
10,CC(=O)Nc1ccc(S(=O)(=O)N2C[C@@H]3C[C@H](C2)c2ccc(-c4ccc(OC(F)(F)F)cc4)c(=O)n2C3)cc1,inactive
11,Cc1ccc(S(=O)(=O)NCc2ccccn2)c(C)c1C,inconclusive: 27%
12,Cn1cc(SCC(=O)N2N=C(c3cccs3)CC2c2ccc(F)cc2)c2ccccc21 (stereo not given),inconclusive: 11%
13,COc1ccc(Nc2cc(C)nc(N3CCN(S(=O)(=O)c4cccc(C)c4)CC3)n2)cc1,inconclusive: 12%
14,O=C(CSc1c2c(nc3ccc(Cl)cc13)CCCC2)N1CCCC1,inconclusive: 12%
15,COC(=O)c1ccc(Nc2nnc(C)c(=O)[nH]2)cc1,inactive
16,Cc1c(C(=O)Nc2ccccc2C(=O)N2CCCC2)cccc1[N+](=O)[O-],inconclusive: 26%
17,C=C(C)COc1ccc(C(=O)NCC(C)n2cncn2)cc1 (stereo not given),inconclusive: 16%
18,CCOc1ccc(N2CN=c3s/c(=C\c4cccc([N+](=O)[O-])c4)c(=O)n3C2)cc1,inconclusive: 17%
19,COc1cccc(/C=C/c2ccncc2)c1OC,inconclusive: 14%
20,O=C(CN1C(=O)/C(=C\c2ccc(C(F)(F)F)cc2)Sc2ccccc21)NCc1ccco1,active: 32%

# By substructure: those above containing a cyano group (three)
row,Compound,inhibition
1,N#CC1=C(N)OC2=C(C(=O)CC(c3ccccc3)C2)C1c1cc(Br)cs1 (stereo not given),inactive
4,N#CC1=C(N)OC2=C(C(=O)CC(c3ccccc3)C2)C1c1c[nH]c2ccccc12 (stereo not given),inconclusive: 19%
11,N#Cc1c(N)sc2c1CCCC2,active: 31%
